Experiment: general procedure: Fmoc solid-phase peptide synthesis; Rink amide resin AM; HBTU
Conditions: whole synthesis, Agilent Technologies 1260 Infinity HPLC with a kromasil C18-5 column

EWPRPQIPP-NH2
final HPLC purity: >95%

Reference: US20210395309A1 (Hong Kong Baptist University, priority 2020, published 2021)
